Results as given in PubChem BioAssay AID493014 (National Center for Advancing Translational Sciences (NCATS), 2011).
This is one part of the list. The main result of the screen is listed elsewhere. These columns were measured beside it and carry no call. Most of these compounds were active or inconclusive in the main read-out, so they are no random draw. The note in brackets gives the kind of curve behind each potency; many fits are weak.

Experiment: qHTS Assay to Find Inhibitors of Chronic Active B-Cell Receptor Signaling
Settings: ABC-DLBCL IkBa-CBG/CBR reporter, luminescence ratio (green luciferase fused to IkBa over red control in TMD8 lymphoma cells), 4 h
Procedure, shortened: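 Concentration-response series (up to 46 uM) were applied to TMD8 dual-reporter cells for 4 h at 37C with doxycycline. Green/red ratio, after filter-overlap correction, defined %Activity; red signal alone was normalised to basal cells and zero luminescence.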

[1] = measured here: CBR red luminescence, cell number
[2] = measured here: IkBa-CBG green luminescence

SMILES | AC50 [1] | AC50 [2]
CC1Cc2nc(SCC(=O)Nc3nc4ccccc4s3)n(C)c(=O)c2S1 (centres undefined) | 32.6 µM [falling, single point] | –
CCOc1ccc(CCNC(=O)CCc2nc(-c3ccc(OC)cc3)no2)cc1OCC | 20.6 µM [rising, single point] | –
COc1ccccc1/C=N/n1c(N)c(S(=O)(=O)c2cccs2)c2nc3ccccc3nc21 | 32.6 µM [rising, single point] | –
Fc1ccc2[nH]c3c(N4CCN(Cc5ccc6c(c5)OCO6)CC4)ncnc3c2c1 | 35.5 µM [falling, single point] | –
Fc1ccc(-c2csc(/C=C/c3ccc4c(c3)OCO4)n2)cc1 | 0.326 µM [rising, full curve, poor fit] | –
O=C1COc2ccccc2N1Cc1c(F)cccc1Cl | 20 µM [rising, partial curve, poor fit] | –
O=C(COc1ccccc1)Nc1cccc2c1CCCC2 | 3.98 µM [rising, partial curve, poor fit] | –
COc1ccccc1NC(=O)Cn1cc(C#N)c2ccccc21 | 3.26 µM [falling, single point] | –
O=C(N/N=C/c1cn(-c2ccccc2)nc1-c1cc2ccccc2o1)c1ccccc1Br | 0.651 µM [rising, full curve, poor fit] | –
Cc1cccc(C(=O)Nc2cccc(C(=O)N/N=C/c3ccc4c(c3)OCO4)c2)c1 | 3.16 µM [falling, partial curve] | –
CSC1=NCCN1C(=O)C12CC3CC(CC(C3)C1)C2 | 5.62 µM [falling, single point] | –
CC1(C)C(C#N)=C(N)Oc2c1c(=O)oc1ccccc21 | 0.562 µM [falling, full curve, poor fit] | –
O=C(NCCCCc1ccccc1)c1ccc(Br)cc1 | 3.55 µM [rising, full curve] | –
CCN1CCN(C(=S)Nc2ccc([N+](=O)[O-])cc2)CC1 | 18.4 µM [rising, single point] | –
CC1CC(=O)c2cnc(Nc3ccccc3)nc2C1 (centres undefined) | 11.6 µM [falling, partial curve] | –
COc1ccc(NC(=O)C(Sc2nnc(-c3ccncc3)n2-c2ccccc2C)c2ccccc2)cc1Cl (centres undefined) | 14.6 µM [rising, single point] | –
CCc1ccc(C(=O)CSc2nc(C)cc(=O)[nH]2)cc1 | 3.98 µM [rising, full curve, poor fit] | –
CC(=O)N1CCc2c(sc(NC(=O)C3CCCN3S(=O)(=O)c3cccs3)c2C#N)C1 (centres undefined) | 20.6 µM [rising, partial curve, poor fit] | –
COc1ccc([N+](=O)[O-])cc1NS(=O)(=O)c1cc(C(=O)NCc2cccnc2)ccc1Cl | 29.1 µM [rising, partial curve, poor fit] | –
COc1ccc(C2c3c(oc4ccccc4c3=O)C(=O)N2c2ccc(C)cn2)cc1OC (centres undefined) | 4.11 µM [rising, partial curve, poor fit] | –
COc1cc2cnc(-c3ccccc3)c(C(=O)c3ccc(OCc4ccccc4)cc3)c2cc1OC | 6.51 µM [rising, partial curve, poor fit] | –

SMILES | AC50 [1] | AC50 [2]
Cc1c(C(=O)Nc2ccc3c(c2)OCCO3)sc2nc(-c3ccccc3)cn12 | 29.1 µM [falling, single point] | 11.6 µM [rising, partial curve, poor fit]
Cc1cccc(N2CCN(C(=O)c3ccc4nc(-c5ccco5)c(-c5ccco5)nc4c3)CC2C)c1 (centres undefined) | 12.6 µM [falling, partial curve, poor fit] | –
O=C(NCCCC1CCCC1)C1CCC(=O)N(Cc2cccc(C(F)(F)F)c2)C1 (centres undefined) | 11.2 µM [falling, partial curve] | –
O=C(N/N=C/c1cccs1)c1n[nH]c2c1CCCC2 | 4.47 µM [falling, partial curve] | –
Cc1cccc(/C=N\N=C\c2cccc(C)c2)c1 | 11.2 µM [rising, partial curve, poor fit] | –
Clc1cccc(-n2ncc3c(NC4CCCCC4)ncnc32)c1 | 12.6 µM [falling, partial curve, poor fit] | –
COc1cccc(/C=C/C(=O)Nc2ccc3c(c2)OCCO3)c1 | 6.31 µM [falling, partial curve, poor fit] | –
O=C(O)c1cc(N2N=C(C(F)(F)F)/C(=C/C=C/c3ccco3)C2=O)ccc1Cl | 0.126 µM [rising, full curve, poor fit] | –
COc1cc(C(=O)N/N=C/c2ccc(OC(=O)c3ccccc3)c(OC)c2)ccc1O | 7.08 µM [falling, partial curve, poor fit] | –
CC(C)CCOc1ccc(C(=O)NCC(c2cccs2)N2CCOCC2)cc1 (centres undefined) | 23.1 µM [rising, partial curve, poor fit] | –
O=C(COc1ccc2c3c(c(=O)oc2c1)CCC3)NC1CCCCC1 | 0.1 µM [rising, full curve, poor fit] | –
O=C(Nc1ccccc1Oc1ccccc1)c1ccccc1F | 20.6 µM [rising, partial curve] | –
CC(C(=O)OCc1nnc(-c2ccccc2)o1)N1C(=O)C2CCCCC2C1=O (centres undefined) | 22.4 µM [falling, single point] | –
COc1ccc(CCNC(=O)CN(c2ccccc2OC)S(=O)(=O)c2ccc(C)cc2)cc1 | 22.4 µM [falling, partial curve, poor fit] | –
CN(C)c1ccc(-c2nn3c(C4CCCCC4)nnc3s2)cc1 | 6.51 µM [rising, full curve, poor fit] | –
CCC(=O)Nc1nc(C)c(C(=O)Nc2cccc(Cl)c2)s1 | 10 µM [falling, partial curve, poor fit] | –
COc1ccc(OCC(O)Cn2c(=N)n(Cc3ccccc3)c3ccccc32)cc1 (centres undefined) | 29.1 µM [falling, single point] | –
O=C(Nc1ccc(Cl)cc1)N1CC=CCC1 | 14.1 µM [falling, single point] | –
c1ccc(-n2nnnc2NC2CCCCC2)cc1 | 32.6 µM [falling, partial curve, poor fit] | –
CCOC(=O)/C=C/C(=O)OCC(=O)Nc1cccc(Cl)c1Cl | 10 µM [falling, partial curve] | –
COC(=O)C1=C(C)N=C2SC(C#N)=C(N)N2C1c1cccc(OC)c1 (centres undefined) | 0.164 µM [falling, full curve, poor fit] | –

SMILES | AC50 [1] | AC50 [2]
NNC(=O)C(=O)Nc1ccc(O)cc1 | 2 µM [falling, full curve] | –
CC(C)c1ccc(CN2CCN(C(=O)CCl)CC2)cc1 | 12.6 µM [falling, partial curve, poor fit] | –
O=C(c1cc2cc(Br)ccc2oc1=O)N1CCCC1 | 2.06 µM [rising, partial curve, poor fit] | –
COc1ccc(O)c(/C=N/NC(=S)NCCc2ccccc2)c1 | 15.8 µM [falling, partial curve, poor fit] | –
CCOC(=O)c1[nH]c2ccccc2c1NC(=O)COC | 4.11 µM [falling, partial curve, poor fit] | –
CCOC(=O)C1=C(C)NC2=C(C(=O)C(C(=O)OCC)C(c3ccco3)C2)C1c1ccccn1 (centres undefined) | 6.51 µM [falling, single point] | 6.51 µM [rising, partial curve, poor fit]
COc1ccc(C(=O)Oc2cccc(/C=N/NC(N)=S)c2)cc1 | 23.1 µM [falling, partial curve, poor fit] | –
COc1cccc(NC(=O)Nc2cc(NC(=O)Nc3cccc(OC)c3)c(C)nc2C)c1 | 3.26 µM [rising, partial curve, poor fit] | –
CCCOC(=O)Nc1nnc(CCC)s1 | 0.0517 µM [falling, full curve, poor fit] | –
CC(NC(=O)COC(=O)c1ccco1)c1ccccc1 (centres undefined) | 0.103 µM [falling, full curve, poor fit] | –
C=CC[C@@H](CC(=O)N(CCO)Cc1ccccc1)C(=O)N[C@@H](COC(=O)[C@@H](CC=C)Cc1ccc(F)cc1)Cc1c[nH]c2ccccc12 | 18.4 µM [falling, partial curve] | –
CCc1ccc(NC(=O)c2cc(S(=O)(=O)NC3CCCC3)ccc2F)cc1 | 17.8 µM [falling, single point] | –
CC1=CC(C)(C)N2C(=O)C3(C(C#N)=C(N)Oc4cc(O)ccc43)c3c(C)c(C)cc1c32 (centres undefined) | 8.2 µM [falling, partial curve, poor fit] | –
Cc1ccc(CN2CCN(C(=O)c3ccco3)CC2)cc1 | 8.2 µM [rising, partial curve] | –
N#Cc1cnn(-c2nc3sc4c(c3c(=O)[nH]2)CCCC4)c1N | 3.66 µM [rising, full curve, poor fit] | –
CN1CCN(C(=O)c2ccccc2-c2nc(-c3ccccc3)no2)CC1 | 12.6 µM [rising, partial curve] | –
Cn1c(/C=C/c2cccc(Br)c2)nc2ccccc2c1=O | 35.5 µM [falling, single point] | –
Nc1nnnn1/N=C/c1ccc(N2CCCCC2)c([N+](=O)[O-])c1 | 11.6 µM [rising, partial curve, poor fit] | –
CCOC(=O)c1c(N)c(C#N)nn1-c1ccccc1C(=O)OC | 11.6 µM [falling, partial curve, poor fit] | –
O=C(CN1C(=O)S/C(=C\c2ccccc2F)C1=O)Nc1ccccc1O | 35.5 µM [falling, single point] | –
